doi:10.1101/2021.06.04.447173

Target: MOG-7::degron::GFP (C. elegans (endogenous in worms))
Experiment: affinity purification with mass spectrometry

B1: STIP-1 (protein, UniProt Q17784 1-830)
chain: MEDDDGRESFEINDMDLEYAMNPGGRRRFQNKDQATYGVFAPDSDDDDDEQGTSRGPYKKRSKISAPMSFVSGGIQQGNKIDKDDPASLNLNLGGEKKPKEDDEGSIQIDFDKRTKKAPKQNGAQVFAGMRSSANHGAADINQFGSWMRGDGNSNKIMKMMQAMGYKPGEGLGAQGQGIVEPVQAQLRKGRGAVGAYGKESTATGPKFGESAADAQKRMAQEGTSSRPTNDDQEKSGLKIKGSWKKSQTVKTKYRTIEDVMEEGMSASRPASHQQSQQYSNIKVIDMTGKQQKIYSGYDSFSMKTRSEYDTVDDEERTVFDVPELIHNLNLLVDLTEEGIRRSNQQLISLKDQTTALEYDLQQVQKSLGTEEQEAQHIKDVYELIDGFSSNRSPSMEECQELFRRLRSEFPHEYELYSLETVAIPTVLPLIQKYFVAWKPLEDKNYGCELISTWRDILDDSKNGRKMTFGHNKTKGDEIRAYDRIIWEGILPSIRRACLQWDPSTQMHEMIELVEQWIPLLSAWITENILEQLVVPKIAERVNQWDPMTDEIPIHEWLVPWLVLLGDRIQTVMPPIRQKLSKALKLWDPMDRSALETLRPWQNVWSAATFSAFIAQNIVPKLGVALDTMELNPTMNPEYPEWTACMEWLEFTHPDAIANIVTKYFFPRFYNCLCLWLDSPGVDYNEVKRWYGSWKARIPQVLVNYPTVNENLRRSMIAIGRSLQGEKVGGLQATPIAPMAPPPPMAPHFTQAAPVQKLSLKEIIEYTAGKNGFTYHPQKDRYKDGRQVFWFGALSIYLDSEMVYVMDPIEFVWRPSGLNELIQMAQGAQG
In the case of B1, the binding is reported as “binds”.

Results are given in words; binding and its absence hold for the method and conditions named. Binding seen in cells or lysates may run through a third protein. These calls come from enrichment with a bait or labelling near it, and not all partners need be listed.
